Results are given in words; binding and its absence hold for the method and conditions named. In cells and extracts the contact can be indirect. Some entries that bind do so weakly or less than the wild type.
Experiments:
[1] = molecular target: T1, endogenous GATOR2 complex (Seh1L, WDR59, WDR24, Sec13 and Mios) (human) (UniProt Q9NXC5+Q96S15+Q6PJI9+P55735+Q96EE3); experiment: anti-HA co-immunoprecipitation from CASTOR1-depleted HEK-293T cells (FIG. 9C)
[2] = molecular target: T1, endogenous GATOR2 complex (Seh1L, WDR59, WDR24, Sec13 and Mios) (human); experiment: anti-HA co-immunoprecipitation, HEK-293T cells (FIG. 3A)
[3] = molecular target: T1, endogenous GATOR2 complex (Seh1L, WDR59, WDR24, Sec13 and Mios) (human); experiment: co-immunoprecipitation, anti-HA IP from HEK-293T cells starved of amino acids 50 min (-) or restimulated 10 min (+), immunoblot for endogenous mios and WDR24
[4] = molecular target: T1, endogenous GATOR2 complex (Seh1L, WDR59, WDR24, Sec13 and Mios) (human); experiment: co-immunoprecipitation, HEK-293T cells (FIGS. 3A and 3B, FIG. 9B, FIG. 9C)

Protein sequences, listed by entry. Tags and fused reporters are not part of them. Lines headed by an entry give the natural chain unless they say otherwise; changes in a name come on top.
UniProt Q9NXC5: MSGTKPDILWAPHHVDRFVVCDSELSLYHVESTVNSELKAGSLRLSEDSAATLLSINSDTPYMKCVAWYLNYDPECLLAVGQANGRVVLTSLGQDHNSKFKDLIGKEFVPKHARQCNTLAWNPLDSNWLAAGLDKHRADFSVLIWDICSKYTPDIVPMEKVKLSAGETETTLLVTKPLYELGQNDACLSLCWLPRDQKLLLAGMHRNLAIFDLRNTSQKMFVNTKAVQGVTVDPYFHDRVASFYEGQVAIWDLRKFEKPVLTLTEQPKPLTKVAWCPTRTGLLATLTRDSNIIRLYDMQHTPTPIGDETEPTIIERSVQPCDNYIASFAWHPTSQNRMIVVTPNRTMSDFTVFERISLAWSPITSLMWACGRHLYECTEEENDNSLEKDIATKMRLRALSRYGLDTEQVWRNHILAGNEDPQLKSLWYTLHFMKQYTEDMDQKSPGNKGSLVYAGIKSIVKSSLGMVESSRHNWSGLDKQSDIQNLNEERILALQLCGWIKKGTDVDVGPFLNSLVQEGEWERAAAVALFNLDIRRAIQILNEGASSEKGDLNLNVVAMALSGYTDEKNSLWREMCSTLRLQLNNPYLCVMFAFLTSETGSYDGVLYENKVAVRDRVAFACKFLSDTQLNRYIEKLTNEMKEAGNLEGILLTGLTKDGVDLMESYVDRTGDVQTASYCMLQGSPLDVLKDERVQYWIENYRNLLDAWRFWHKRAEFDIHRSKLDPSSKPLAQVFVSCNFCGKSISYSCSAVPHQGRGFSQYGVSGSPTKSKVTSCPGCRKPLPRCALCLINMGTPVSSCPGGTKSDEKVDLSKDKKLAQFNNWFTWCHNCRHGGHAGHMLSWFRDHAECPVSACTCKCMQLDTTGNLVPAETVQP
UniProt Q96S15: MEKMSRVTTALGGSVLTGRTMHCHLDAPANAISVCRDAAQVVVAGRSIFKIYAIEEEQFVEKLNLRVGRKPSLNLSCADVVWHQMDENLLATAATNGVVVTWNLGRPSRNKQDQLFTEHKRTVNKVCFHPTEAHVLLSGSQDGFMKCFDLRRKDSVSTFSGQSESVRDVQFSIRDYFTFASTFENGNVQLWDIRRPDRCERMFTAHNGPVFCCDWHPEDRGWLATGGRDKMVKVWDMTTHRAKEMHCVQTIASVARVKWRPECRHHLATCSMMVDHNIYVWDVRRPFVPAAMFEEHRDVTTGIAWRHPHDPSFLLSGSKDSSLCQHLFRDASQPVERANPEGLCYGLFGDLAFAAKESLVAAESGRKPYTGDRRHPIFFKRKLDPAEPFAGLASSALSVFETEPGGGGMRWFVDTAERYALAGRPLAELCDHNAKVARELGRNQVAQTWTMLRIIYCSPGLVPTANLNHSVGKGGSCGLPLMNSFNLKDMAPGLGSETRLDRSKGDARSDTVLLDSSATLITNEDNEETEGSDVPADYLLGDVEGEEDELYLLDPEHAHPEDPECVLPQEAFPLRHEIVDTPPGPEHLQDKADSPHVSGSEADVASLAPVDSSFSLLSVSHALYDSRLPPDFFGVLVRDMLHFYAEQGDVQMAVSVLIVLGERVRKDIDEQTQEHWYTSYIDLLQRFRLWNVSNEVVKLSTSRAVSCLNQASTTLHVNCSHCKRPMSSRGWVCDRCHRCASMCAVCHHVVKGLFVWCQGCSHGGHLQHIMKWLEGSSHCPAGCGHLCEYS
UniProt Q6PJI9: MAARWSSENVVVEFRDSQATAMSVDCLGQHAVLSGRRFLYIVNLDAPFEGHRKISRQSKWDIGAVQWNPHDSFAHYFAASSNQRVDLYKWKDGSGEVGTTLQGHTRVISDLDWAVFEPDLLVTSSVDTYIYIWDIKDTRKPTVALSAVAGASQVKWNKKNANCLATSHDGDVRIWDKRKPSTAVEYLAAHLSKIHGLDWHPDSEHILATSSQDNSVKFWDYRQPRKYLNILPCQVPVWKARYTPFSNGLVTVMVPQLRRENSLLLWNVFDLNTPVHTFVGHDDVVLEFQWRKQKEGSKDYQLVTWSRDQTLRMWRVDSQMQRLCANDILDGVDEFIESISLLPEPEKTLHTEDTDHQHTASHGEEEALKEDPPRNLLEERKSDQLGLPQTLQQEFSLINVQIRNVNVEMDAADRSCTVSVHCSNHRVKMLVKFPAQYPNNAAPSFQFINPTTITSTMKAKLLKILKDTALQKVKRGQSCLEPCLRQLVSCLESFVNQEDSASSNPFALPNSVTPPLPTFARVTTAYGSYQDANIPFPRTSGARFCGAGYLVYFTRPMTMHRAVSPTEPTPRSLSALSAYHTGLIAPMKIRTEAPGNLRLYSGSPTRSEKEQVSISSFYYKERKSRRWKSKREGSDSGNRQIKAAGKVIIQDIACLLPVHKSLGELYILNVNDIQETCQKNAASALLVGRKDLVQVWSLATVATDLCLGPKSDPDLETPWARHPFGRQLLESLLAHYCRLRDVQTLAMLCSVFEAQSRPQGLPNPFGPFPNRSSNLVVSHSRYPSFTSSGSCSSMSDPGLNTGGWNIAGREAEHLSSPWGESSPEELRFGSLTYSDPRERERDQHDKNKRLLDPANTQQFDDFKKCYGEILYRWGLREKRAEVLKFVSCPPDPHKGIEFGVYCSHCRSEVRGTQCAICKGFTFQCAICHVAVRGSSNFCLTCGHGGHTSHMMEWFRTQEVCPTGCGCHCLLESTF
UniProt P55735: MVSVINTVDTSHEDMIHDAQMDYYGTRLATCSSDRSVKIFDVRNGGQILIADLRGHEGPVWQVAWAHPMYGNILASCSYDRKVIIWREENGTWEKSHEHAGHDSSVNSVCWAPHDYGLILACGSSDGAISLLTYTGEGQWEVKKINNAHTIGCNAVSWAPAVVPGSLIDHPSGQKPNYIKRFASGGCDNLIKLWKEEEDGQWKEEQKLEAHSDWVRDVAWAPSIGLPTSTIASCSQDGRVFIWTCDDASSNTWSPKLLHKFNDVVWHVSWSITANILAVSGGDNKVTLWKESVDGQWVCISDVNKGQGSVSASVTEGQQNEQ
UniProt Q96EE3: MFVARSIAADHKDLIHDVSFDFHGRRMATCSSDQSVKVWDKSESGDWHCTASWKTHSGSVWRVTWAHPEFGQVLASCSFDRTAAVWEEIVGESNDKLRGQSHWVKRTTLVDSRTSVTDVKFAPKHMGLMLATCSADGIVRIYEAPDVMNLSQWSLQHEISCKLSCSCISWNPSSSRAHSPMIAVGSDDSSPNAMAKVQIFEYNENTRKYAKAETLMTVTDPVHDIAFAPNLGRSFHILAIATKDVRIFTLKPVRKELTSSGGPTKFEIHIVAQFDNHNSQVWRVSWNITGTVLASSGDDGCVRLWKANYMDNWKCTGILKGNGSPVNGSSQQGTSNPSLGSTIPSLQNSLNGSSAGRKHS

Measured: binding

B1: CASTOR2 homodimer (protein, human, not shown: small tags and cut ends)
chain 1: MELHILEHRLQVASVAKESIPLFTYGLIKLAFLSSKTRCKFFSLTETPEDYTIIVDEEGFLELPSSEHLSVADATWLALNVVSGGGSFSSSQPIGVTKIAKSVIAPLADQNISVFMLSTYQTDFILVRERDLPFVTHTLSSEFTILRVVNGETVAAENLGITNGFVKPKLVQRPVIHPLSSPSNRFCVTSLDPDTLPAVATLLMDVMFYSNGVKDPMATGDDCGHIRFFSFSLIEGYISLVMDVQTQQRFPSNLLFTSASGELWKMVRIGGQPLGFDECGIVAQISEPLAAADIPAYYISTFKFDHALVPEENINGVISALKVSQAEKH
chain 2: B1 chain 1
binds: [1] | [2] | [3] | [4]
